{"sequences": {"note": "Sequences of proteins named here, by UniProt entry; tags and fusion partners are left off.", "UniProt Q01638, whole entry": "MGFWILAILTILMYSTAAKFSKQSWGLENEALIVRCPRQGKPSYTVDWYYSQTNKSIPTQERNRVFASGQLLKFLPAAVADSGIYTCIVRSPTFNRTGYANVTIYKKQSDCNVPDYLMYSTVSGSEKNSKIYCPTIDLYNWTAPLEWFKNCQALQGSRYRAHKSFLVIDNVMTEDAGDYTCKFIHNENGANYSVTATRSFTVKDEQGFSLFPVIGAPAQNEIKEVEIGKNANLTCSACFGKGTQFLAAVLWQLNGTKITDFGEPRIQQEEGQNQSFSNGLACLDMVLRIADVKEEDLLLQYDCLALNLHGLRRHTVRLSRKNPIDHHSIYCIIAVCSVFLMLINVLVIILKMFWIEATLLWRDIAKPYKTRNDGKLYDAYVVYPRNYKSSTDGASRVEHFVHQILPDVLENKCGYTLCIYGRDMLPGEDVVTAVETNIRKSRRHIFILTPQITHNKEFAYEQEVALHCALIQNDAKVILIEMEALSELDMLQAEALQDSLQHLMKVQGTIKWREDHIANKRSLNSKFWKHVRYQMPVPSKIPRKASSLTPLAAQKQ", "UniProt O95760, whole entry partner": "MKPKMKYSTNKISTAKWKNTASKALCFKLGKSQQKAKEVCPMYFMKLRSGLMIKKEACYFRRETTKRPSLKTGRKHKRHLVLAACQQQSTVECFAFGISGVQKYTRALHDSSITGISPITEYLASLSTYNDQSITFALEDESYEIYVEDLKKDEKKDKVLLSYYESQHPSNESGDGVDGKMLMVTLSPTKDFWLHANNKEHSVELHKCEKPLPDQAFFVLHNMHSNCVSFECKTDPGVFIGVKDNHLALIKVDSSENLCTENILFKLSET"}, "source": "PubChem BioAssay AID1259354", "about": "(Paczesny and Yang Labs, IUPUI and University of Michigan, 2018)", "note": "Among all 78,000 compounds or so, about 1,800 (2.3%) were called active. Inconclusive means that the source gave no clear call. Such entries were picked first, then a sample of the others. Cut-off read from the data, not from the text of the source: active = inhibition above about 30%; inconclusive = mostly about 10% to 28%; inactive = weaker than that.", "data": [{"molecular_target": "Interleukin-1 receptor-like 1 (Homo sapiens) (UniProt Q01638)", "assay": "inhibitors of human ST2 (IL1RL1) binding to IL-33, primary screen, biochemical, AlphaLISA (AID 1259354)", "conditions": "AlphaLISA ST2-Fc/biotin-IL-33 interaction, 1 h; at 17 µM, stronger effect = higher value", "values": [{"smiles": "COC(=O)C1=COC(C)C2CN3CCC4(C(=O)Nc5ccccc54)C3CC12", "note": "(centres undefined)", "inhibition": "inconclusive: 18%"}, {"smiles": "O=C(CN1CC=C(c2cnn(-c3ccccn3)c2)CC1)NCC1CCCO1", "note": "(centres undefined)", "inhibition": "inactive"}, {"smiles": "CCc1nccc(CN2CC[C@@H](c3cccc(OC)c3)[C@H](O)C2)n1", "inhibition": "inconclusive: 11%"}, {"smiles": "O=[N+]([O-])c1ccc(N2CCN(Cc3c(F)cccc3Cl)CC2)cc1", "inhibition": "inconclusive: 24%"}, {"smiles": "Cc1noc(C)c1CNC(C)Cn1cncn1", "note": "(centres undefined)", "inhibition": "inactive"}, {"smiles": "CC(C)n1ccnc1CN1CCC2(CC1)C(=O)N(C)c1ccccc12", "inhibition": "inconclusive: 24%"}, {"smiles": "C=C[C@H]1CN2CC[C@H]1C[C@@H]2CNS(=O)(=O)c1cccs1", "inhibition": "inconclusive: 17%"}, {"smiles": "O=c1ccc(-c2cncnc2)c2n1C[C@H]1C[C@@H]2CN(S(=O)(=O)c2ccc(Cl)cc2)C1", "inhibition": "inconclusive: 22%"}, {"smiles": "CCN(CCCl)CCOC(C)=O", "inhibition": "inconclusive: 23%"}, {"smiles": "O=[N+]([O-])c1cccc(CN2CCN(c3ccc(Cl)cc3)CC2)c1", "inhibition": "active: 47%"}, {"smiles": "O=C(NC1(C(F)(F)F)Oc2cc(Cl)c(Cl)cc2O1)N1CCC2(CC1)OCCO2", "inhibition": "inactive"}, {"smiles": "CC(=O)Nc1ccc(-c2ccc(=O)n3c2[C@@H]2C[C@@H](CN(C(=O)CN(C)C)C2)C3)cc1", "inhibition": "inconclusive: 12%"}, {"smiles": "CCOc1ccccc1N1CCN(Cc2cc(F)ccc2F)CC1", "inhibition": "inconclusive: 12%"}, {"smiles": "Cc1ccc(S(=O)(=O)NC[C@H]2C[C@@H]3CCN2C[C@@H]3CN2CCN(C)CC2)cc1", "inhibition": "inactive"}, {"smiles": "Cn1nc(-c2ccc3ccccc3c2)cc1[C@H]1CN2CC[C@H]1C[C@@H]2CNS(=O)(=O)c1cccs1", "inhibition": "inconclusive: 10%"}, {"smiles": "O=C1NC(=O)C(c2ccccc2)(c2ccccc2)C(=O)N1", "inhibition": "inconclusive: 11%"}, {"smiles": "COc1ccc(CN(C)C)c(OC(=O)N(C)C)c1", "inhibition": "inactive"}, {"smiles": "N#Cc1cc2c(nc1SCc1ccccc1Br)C1CCN2CC1", "inhibition": "inactive"}, {"smiles": "O=c1[nH]ccc2ccc(-c3cccc4c3CCNC4)cc12", "inhibition": "inconclusive: 15%"}, {"smiles": "CN1CCc2nc(N)c(C#N)c(-c3ccc(Br)cc3)c2C1", "inhibition": "active: 34%"}, {"smiles": "O=C(Cc1ccccc1)Nc1ccc2n(c1=O)C[C@H]1C[C@@H]2CN(C(=O)c2ccccc2)C1", "inhibition": "inconclusive: 17%"}, {"smiles": "CC(C(=O)NCc1cnn2ccccc12)N1CCCC1=O", "note": "(centres undefined)", "inhibition": "inconclusive: 22%"}, {"smiles": "CC(C)NC(=O)[C@H]1CN2CCC1C[C@@H]2Cn1cc(CN(C)Cc2ccccc2)nn1", "note": "(some centres undefined)", "inhibition": "inconclusive: 17%"}, {"smiles": "Ic1ccccc1CN[C@@H]1C2CCN(CC2)[C@@H]1C(c1ccccc1)c1ccccc1", "inhibition": "inconclusive: 19%"}, {"smiles": "O=[N+]([O-])c1ccccc1CN1CCN(Cc2ccccc2)CC1", "inhibition": "inconclusive: 26%"}, {"smiles": "C[C@@H]1CCC2[C@@H](C)C(=O)OC3O[C@@]4(C)CCC1[C@]32OO4", "note": "(some centres undefined)", "inhibition": "inconclusive: 11%"}, {"smiles": "Cc1nc(N(C)C)ncc1C(=O)N1CCOC2(CNCCOC2)C1", "note": "(centres undefined)", "inhibition": "inconclusive: 18%"}, {"smiles": "C[C@H](N)CN1CCc2ccc(Br)cc21", "inhibition": "inconclusive: 12%"}, {"smiles": "COc1ccc(-c2cc([C@H]3CN4CC[C@H]3C[C@@H]4CNC(=S)Nc3ccccc3)n(C)n2)cc1", "inhibition": "inactive"}, {"smiles": "CCCCc1ncc(-c2nccn2C(C)c2ccc(C)nc2)[nH]1", "note": "(centres undefined)", "inhibition": "inconclusive: 29%"}, {"smiles": "O=C(CN1CCCC1=O)NCCc1ccccc1", "inhibition": "inconclusive: 12%"}, {"smiles": "O=C(Nc1ccc(=O)n2c1[C@@H]1C[C@@H](CN(C(=O)NC3CCCCC3)C1)C2)c1cncnc1", "inhibition": "inconclusive: 11%"}, {"smiles": "COc1ccc(CCN(C)Cc2cc(OC)c(OC)cc2[N+](=O)[O-])cc1OC", "inhibition": "inactive"}, {"smiles": "O=[N+]([O-])c1ccccc1CN1CCN(c2ccccc2Cl)CC1", "inhibition": "inconclusive: 24%"}, {"smiles": "CCNC(=O)NC[C@H]1C[C@@H]2CCN1C[C@@H]2c1cc(-c2ccc(OC)c(OC)c2)nc(C)n1", "inhibition": "inconclusive: 18%"}, {"smiles": "Cc1[nH]c2ccccc2c1CCCNC1CCCCC1", "inhibition": "inconclusive: 14%"}, {"smiles": "O=[N+]([O-])/C=C/c1ccc2c(c1)OCO2", "inhibition": "inconclusive: 20%"}, {"smiles": "COc1cc(NC(=S)NC[C@H]2C[C@@H]3CCN2C[C@@H]3c2cc(-c3ccccc3)nn2C)cc(OC)c1", "inhibition": "inactive"}, {"smiles": "CN1CCN2CCN(C(=O)c3cccc(=O)[nH]3)CC2C1=O", "note": "(centres undefined)", "inhibition": "inconclusive: 15%"}, {"smiles": "O=C(Nc1ccccc1)[C@H]1CN2CCC1C[C@@H]2Cn1cc(C2(O)CCCCC2)nn1", "note": "(some centres undefined)", "inhibition": "inconclusive: 14%"}, {"smiles": "O=[N+]([O-])c1ccc(N2CCN(Cc3ccc(Cl)cc3)CC2)cc1", "inhibition": "inactive"}, {"smiles": "CC(=O)c1ccc(NC(=O)NC[C@H]2C[C@@H]3CCN2C[C@@H]3CN2CCSCC2)cc1", "inhibition": "inconclusive: 17%"}, {"smiles": "Nc1ccc(Cl)cc1C(=O)c1ccccc1Cl", "inhibition": "inconclusive: 19%"}, {"smiles": "Cc1ccccc1N1C(=O)CC(=O)NC1=O", "inhibition": "inactive"}, {"smiles": "CC(C)(N)Cc1cc2ccccc2[nH]1", "inhibition": "inconclusive: 18%"}, {"smiles": "CCNC(=O)NC[C@H]1C[C@@H]2CCN1C[C@@H]2c1cc(-c2ccccc2OC)nn1C", "inhibition": "inconclusive: 26%"}, {"smiles": "CN(C)C(=O)CN1CC=C(c2cnn(-c3nccc4ccccc34)c2)CC1", "inhibition": "inconclusive: 12%"}, {"smiles": "CN1CCN(C[C@H]2CN3CC[C@H]2C[C@@H]3CNC(=S)NCCN2CCOCC2)CC1", "inhibition": "inconclusive: 16%"}, {"smiles": "OC1CCCCC1N1CCC(c2ccccc2)CC1", "note": "(centres undefined)", "inhibition": "inconclusive: 16%"}, {"smiles": "Cc1nc(-c2cccs2)cc([C@H]2CN3CC[C@H]2C[C@@H]3CNC(=O)c2ccc(N(C)C)cc2)n1", "inhibition": "inconclusive: 11%"}, {"smiles": "O=c1c2ccccc2nc(/C=C/c2ccccc2)n1-c1ccccc1F", "inhibition": "inactive"}, {"smiles": "CCN1CCN(Cc2ccc(OC)c(OC)c2OC)CC1", "inhibition": "inconclusive: 10%"}, {"smiles": "COc1ccc(-c2cc([C@H]3CN4CC[C@H]3C[C@@H]4COC(=O)Nc3cccc(C(F)(F)F)c3)n(C)n2)cc1", "inhibition": "inconclusive: 12%"}, {"smiles": "O=C(NC1CC1)[C@H]1CN2CCC1C[C@@H]2Cn1cc(CSc2ccccc2)nn1", "note": "(some centres undefined)", "inhibition": "inconclusive: 17%"}, {"smiles": "CCOC(=O)c1c(C)n(C2CCCCC2)c2ccc(O)cc12", "inhibition": "inactive"}, {"smiles": "Cn1nc(-c2ccc(F)cc2)cc1[C@H]1CN2CC[C@H]1C[C@@H]2CNS(=O)(=O)c1ccccc1", "inhibition": "inconclusive: 14%"}, {"smiles": "Cc1cc(/C=C2\\C(=O)NC(=O)N(C)C2=O)c(C)n1-c1ccccc1F", "inhibition": "inconclusive: 24%"}, {"smiles": "O=S(=O)(NC[C@H]1C[C@@H]2CCN1C[C@@H]2CN1CCN(c2ccc(F)cc2)CC1)c1ccc(Cl)cc1", "inhibition": "inconclusive: 19%"}, {"smiles": "NCCc1nc(N)n[nH]1", "inhibition": "inactive"}, {"smiles": "O=C(N[C@H]1CN2CCC1CC2)c1ccc(Cl)cc1", "inhibition": "inconclusive: 17%"}, {"smiles": "CNCc1cn(C[C@H]2CC3CCN2C[C@@H]3C(=O)NCc2ccc(F)cc2)nn1", "note": "(some centres undefined)", "inhibition": "inconclusive: 12%"}, {"smiles": "CC1CCN(C[C@H]2CN3CC[C@H]2C[C@@H]3CNC(=O)Nc2ccsc2)CC1", "inhibition": "inconclusive: 26%"}, {"smiles": "Cc1cc(Br)ccc1OCC(=O)N1CCN(Cc2ccc3c(c2)OCO3)CC1", "inhibition": "inconclusive: 12%"}, {"smiles": "COc1ccccc1NC(=O)N1C[C@@H]2C[C@H](C1)c1c(-c3cncnc3)ccc(=O)n1C2", "inhibition": "inactive"}, {"smiles": "Cc1ccc(CN2CCN(c3ccc(F)cc3)CC2)cc1", "inhibition": "inconclusive: 20%"}, {"smiles": "COc1cc(CN2CCN(c3ccccc3)CC2)cc(Br)c1O", "inhibition": "inconclusive: 10%"}, {"smiles": "O=[N+]([O-])c1ccccc1CN1CCN(c2ccccc2)CC1", "inhibition": "inconclusive: 26%"}, {"smiles": "C=CCN1C[C@@H](C)N([C@H](c2ccc(C(=O)N(CC)CC)cc2)c2cccc(OC)c2)C[C@@H]1C", "inhibition": "inconclusive: 14%"}, {"smiles": "Cc1nc(-c2ccc(F)cc2)cc([C@H]2CN3CC[C@H]2C[C@@H]3CNC(=O)C2CC2)n1", "inhibition": "inconclusive: 15%"}, {"smiles": "CC[C@H]1CN2CC[C@H]1C[C@@H]2[C@@H](O)c1ccnc2ccc(OC)cc12", "inhibition": "inconclusive: 10%"}, {"smiles": "CN(C[C@H]1CN2CC[C@H]1C[C@@H]2CNC(=S)Nc1ccc(-n2cccn2)cc1)c1ccccc1", "inhibition": "inconclusive: 10%"}, {"smiles": "COCCNC(=O)[C@H]1CN2CCC1C[C@@H]2Cn1cc(C2(O)CCCCC2)nn1", "note": "(some centres undefined)", "inhibition": "inconclusive: 13%"}, {"smiles": "O=C(c1ccc(F)cc1)N1C[C@@H]2C[C@H](C1)c1c(-c3cncnc3)ccc(=O)n1C2", "inhibition": "inactive"}, {"smiles": "O=C1Nc2ccccc2C12CCN(Cc1ccc3c(c1)OCCO3)CC2", "inhibition": "inconclusive: 10%"}, {"smiles": "CCN1CCN(Cc2cccc(C)c2)CC1", "inhibition": "inactive"}, {"smiles": "CN(CCc1ccccc1)Cc1ccccc1[N+](=O)[O-]", "inhibition": "inconclusive: 27%"}, {"smiles": "COc1cccc(CN2CCN(c3ccc(F)cc3)CC2)c1", "inhibition": "inactive"}, {"smiles": "N[C@@H](Cn1ccc(=O)[nH]c1=O)C(=O)O", "inhibition": "inconclusive: 21%"}, {"smiles": "O=c1cccc2n1CC1CC2CN(c2c([N+](=O)[O-])nn(-c3ccccc3)[n+]2[O-])C1", "note": "(centres undefined)", "inhibition": "inactive"}, {"smiles": "CCOC(=O)Cc1csc(NC(=O)c2cccn(Cc3ccc(C(F)(F)F)cc3)c2=O)n1", "inhibition": "inactive"}, {"smiles": "CCCCNC(=O)C(CC)N1C(=O)C(C)N=C(c2ccccc2)c2ccccc21", "note": "(centres undefined)", "inhibition": "inactive"}, {"smiles": "CN1C(=O)C2(CCN(Cc3cccnc3N)CC2)c2ccccc21", "inhibition": "inactive"}, {"smiles": "C=CCN1CC[C@]23c4c5ccc(O)c4O[C@H]2/C(=N\\NC(=O)c2ccccc2)CC[C@@]3(O)[C@H]1C5", "inhibition": "inconclusive: 20%"}, {"smiles": "CC(=O)Nc1ccc(-c2ccc3n(c2=O)C[C@H]2C[C@@H]3CN(C3CCN(C)CC3)C2)cc1", "inhibition": "inconclusive: 16%"}, {"smiles": "CCc1ccc2occ(CC(=O)N3CCN(C)C4(CCN(C)CC4)C3)c2c1", "inhibition": "inactive"}, {"smiles": "Cc1ccc(S(=O)(=O)NC[C@H]2C[C@@H]3CCN2C[C@@H]3CN2CCN(c3ccc(F)cc3)CC2)cc1", "inhibition": "inactive"}, {"smiles": "Cc1csc2ncnc(N3CC[C@H]4CC[C@@H](C3)N4)c12", "inhibition": "inconclusive: 13%"}, {"smiles": "CCC1(c2ccccc2)C(=O)NC(=O)N(C)C1=O", "note": "(centres undefined)", "inhibition": "inconclusive: 15%"}, {"smiles": "O=C(c1ccccc1)N1C[C@@H]2C[C@H](C1)c1ccc(-c3cccc(C(F)(F)F)c3)c(=O)n1C2", "inhibition": "inactive"}]}]}
